Results are given in words; binding and its absence hold for the method and conditions named. In cells and extracts the contact can be indirect. Some binding calls cover weakened binding; strength is not graded here.
Target: TRIM21 (human (endogenous in PC3)) (UniProt P19474)
Assay: co-IP; endogenous proteins; PC3 cell lysates reciprocally immunoprecipitated and immunoblotted; Protein A-agarose with antibodies overnight at 4 °C, beads washed with lysis buffer; also after PKI-587 treatment of the cells (interaction not influenced)

Chains of the proteins cited; added tags and fusions are not shown.
UniProt P19474: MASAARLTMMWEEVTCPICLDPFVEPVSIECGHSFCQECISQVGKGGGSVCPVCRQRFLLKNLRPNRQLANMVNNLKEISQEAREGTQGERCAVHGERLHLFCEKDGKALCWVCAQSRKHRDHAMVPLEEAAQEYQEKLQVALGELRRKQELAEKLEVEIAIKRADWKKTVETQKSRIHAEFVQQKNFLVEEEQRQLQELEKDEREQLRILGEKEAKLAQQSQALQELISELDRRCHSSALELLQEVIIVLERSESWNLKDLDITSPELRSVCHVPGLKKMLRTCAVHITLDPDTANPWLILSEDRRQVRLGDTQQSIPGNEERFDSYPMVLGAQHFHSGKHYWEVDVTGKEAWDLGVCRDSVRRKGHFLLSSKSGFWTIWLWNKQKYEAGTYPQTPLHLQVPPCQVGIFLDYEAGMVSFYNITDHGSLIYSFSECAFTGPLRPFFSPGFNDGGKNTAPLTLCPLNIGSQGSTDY
UniProt P11413: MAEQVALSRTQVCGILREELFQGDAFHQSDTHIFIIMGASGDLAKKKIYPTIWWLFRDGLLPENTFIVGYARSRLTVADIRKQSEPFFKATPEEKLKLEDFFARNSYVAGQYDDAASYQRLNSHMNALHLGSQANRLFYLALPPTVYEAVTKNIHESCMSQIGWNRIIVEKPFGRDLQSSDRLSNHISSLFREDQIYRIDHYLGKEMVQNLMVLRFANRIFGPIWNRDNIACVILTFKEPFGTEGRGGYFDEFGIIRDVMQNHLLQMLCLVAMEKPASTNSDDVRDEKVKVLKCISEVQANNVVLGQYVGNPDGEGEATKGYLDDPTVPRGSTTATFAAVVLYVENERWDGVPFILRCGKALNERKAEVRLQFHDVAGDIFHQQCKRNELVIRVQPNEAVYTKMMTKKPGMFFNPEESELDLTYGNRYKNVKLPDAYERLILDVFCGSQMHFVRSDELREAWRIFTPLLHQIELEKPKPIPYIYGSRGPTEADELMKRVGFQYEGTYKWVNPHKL

- binding: binds
Substance: G6PD (from UniProt P11413 1-515) (enzyme; other documents disagree on this pair)

Reference: article PMC7170963
